Assay results taken from publication PMC12440825.
These are yes or no findings as the source states them, for the method shown. Binding seen in cells or lysates may run through a third protein. Some entries that bind do so weakly or less than the wild type. Tags and fused reporters may be left off the sequences shown. One block for each binder: values may come before it.

Molecular target: T1, HA-tagged Sec18 (pYK175, 3×Flag N-terminal tag, HA C-terminal tag) (S. cerevisiae) (UniProt P18759)
T1 sequence: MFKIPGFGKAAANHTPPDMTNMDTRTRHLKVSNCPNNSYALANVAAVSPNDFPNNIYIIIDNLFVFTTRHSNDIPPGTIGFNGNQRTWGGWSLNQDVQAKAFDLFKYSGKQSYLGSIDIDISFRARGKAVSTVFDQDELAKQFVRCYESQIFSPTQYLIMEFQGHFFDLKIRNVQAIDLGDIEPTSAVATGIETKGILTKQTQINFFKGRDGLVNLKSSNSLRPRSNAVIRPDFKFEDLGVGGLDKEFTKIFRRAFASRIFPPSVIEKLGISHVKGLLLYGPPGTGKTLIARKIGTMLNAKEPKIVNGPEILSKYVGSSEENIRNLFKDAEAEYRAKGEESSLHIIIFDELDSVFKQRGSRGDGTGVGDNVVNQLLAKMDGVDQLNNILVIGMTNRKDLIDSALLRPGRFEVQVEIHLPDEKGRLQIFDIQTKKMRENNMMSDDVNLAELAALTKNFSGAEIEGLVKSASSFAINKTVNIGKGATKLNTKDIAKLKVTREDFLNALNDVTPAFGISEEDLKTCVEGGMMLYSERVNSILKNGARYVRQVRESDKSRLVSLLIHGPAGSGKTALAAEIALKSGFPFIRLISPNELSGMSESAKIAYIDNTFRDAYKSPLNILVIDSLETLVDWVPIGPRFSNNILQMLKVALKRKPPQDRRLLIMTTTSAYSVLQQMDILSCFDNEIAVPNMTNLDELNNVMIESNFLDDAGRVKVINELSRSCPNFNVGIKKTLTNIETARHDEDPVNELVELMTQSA
Assay: cross-linking; in vivo XL-MS: spheroplasts of S. cerevisiae S288C expressing tagged Sec18 treated with DSG (5 mM) for 30 min, lysis, magnetic bead anti-HA co-IP, SDS-PAGE bands of crosslinked Sec18 excised, LC-MS/MS; crosslinks graded high, medium or low confidence

binding: binds
B1: GOS1 (endogenous) (protein, UniProt P38736 1-223)
chain: MSSQPSFVTIRGKAISLETQTESLLSKYSTFAQTTSSEQTGQEKKIDKQLEGILGQRQDVIDSLTQICDSNPAISASKLSQLHRHKEILQDHWKSFRNIRSSIQQERNRLNLLFSVKNDIANSTTDAPAPIGDADEYIQNETRRIDQSNNVVDRLISQAWETRSQFHSQSNVLNTANNKVLQTLQRIPGVNQLIMKINTRRKKNAFVLATITTLCILFLFFTW

binding: binds
B2: HA-tagged Sec18 (pYK175, 3×Flag N-terminal tag, HA C-terminal tag) (enzyme, UniProt P18759 1-758)
chain: T1 sequence
